Measurements from paper PMC11040761.
Results are given in words; binding and its absence hold for the method and conditions named. Binding seen in cells or lysates may run through a third protein. Some results given as binding are weak or reduced against the parent protein; the word gives no strength.

Molecular target: T1, 3-hydroxy-3-methylglutaryl-Coa Synthase 2 (HMGCS2) (human) (UniProt P54868)
T1 sequence: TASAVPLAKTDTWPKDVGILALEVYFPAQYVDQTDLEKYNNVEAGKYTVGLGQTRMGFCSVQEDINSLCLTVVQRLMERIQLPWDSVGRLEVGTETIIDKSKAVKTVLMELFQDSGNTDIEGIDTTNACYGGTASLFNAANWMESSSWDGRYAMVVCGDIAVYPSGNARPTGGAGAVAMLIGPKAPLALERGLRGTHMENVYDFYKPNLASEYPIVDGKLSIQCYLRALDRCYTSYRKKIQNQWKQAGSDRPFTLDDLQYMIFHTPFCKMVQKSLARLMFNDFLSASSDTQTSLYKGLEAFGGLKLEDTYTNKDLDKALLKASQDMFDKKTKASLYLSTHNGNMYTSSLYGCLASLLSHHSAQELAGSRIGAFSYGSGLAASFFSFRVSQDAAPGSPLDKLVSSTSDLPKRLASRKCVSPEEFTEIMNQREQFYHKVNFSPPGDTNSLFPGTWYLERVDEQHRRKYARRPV
Assay: co-IP; total extracts of A549 cells with or without ectopic HMGCS2, co-IP lysis buffer; rabbit anti-HMGCS2 at 4 °C overnight, Protein G Agarose 4 h, three washes; WB detection

B1: PPARα (protein, UniProt Q07869 1-468)
chain: MVDTESPLCPLSPLEAGDLESPLSEEFLQEMGNIQEISQSIGEDSSGSFGFTEYQYLGSCPGSDGSVITDTLSPASSPSSVTYPVVPGSVDESPSGALNIECRICGDKASGYHYGVHACEGCKGFFRRTIRLKLVYDKCDRSCKIQKKNRNKCQYCRFHKCLSVGMSHNAIRFGRMPRSEKAKLKAEILTCEHDIEDSETADLKSLAKRIYEAYLKNFNMNKVKARVILSGKASNNPPFVIHDMETLCMAEKTLVAKLVANGIQNKEAEVRIFHCCQCTSVETVTELTEFAKAIPGFANLDLNDQVTLLKYGVYEAIFAMLSSVMNKDGMLVAYGNGFITREFLKSLRKPFCDIMEPKFDFAMKFNALELDDSDISLFVAAIICCGDRPGLLNVGHIEKMQEGIVHVLRLHLQSNHPDDIFLFPKLLQKMADLRQLVTEHAQLVQIIKKTESDAALHPLLQEIYRDMY
With B1 the binding was “binds”.
